From PubChem BioAssay AID1671190 (National Center for Advancing Translational Sciences (NCATS), 2021)
The campaign covered roughly 580,000 compounds. About 6,100 (1.1%) were called active. The shares of active, inactive and inconclusive entries below differ from those in the screen. The call rests on the fitted dose curve; in most records, active means well fitted inhibition curve with a large enough effect; inconclusive means small, poorly fitted or top-dose-only effect, or another doubt; inactive means no such curve, though single readings can be large or run the other way. Potencies beside an inconclusive call are fits to weak or partial responses and may not hold up.

Protein sequences, listed by entry. Tags and fused reporters are not part of them. Lines headed by an entry give the natural chain unless they say otherwise; changes in a name come on top.
UniProt P18054: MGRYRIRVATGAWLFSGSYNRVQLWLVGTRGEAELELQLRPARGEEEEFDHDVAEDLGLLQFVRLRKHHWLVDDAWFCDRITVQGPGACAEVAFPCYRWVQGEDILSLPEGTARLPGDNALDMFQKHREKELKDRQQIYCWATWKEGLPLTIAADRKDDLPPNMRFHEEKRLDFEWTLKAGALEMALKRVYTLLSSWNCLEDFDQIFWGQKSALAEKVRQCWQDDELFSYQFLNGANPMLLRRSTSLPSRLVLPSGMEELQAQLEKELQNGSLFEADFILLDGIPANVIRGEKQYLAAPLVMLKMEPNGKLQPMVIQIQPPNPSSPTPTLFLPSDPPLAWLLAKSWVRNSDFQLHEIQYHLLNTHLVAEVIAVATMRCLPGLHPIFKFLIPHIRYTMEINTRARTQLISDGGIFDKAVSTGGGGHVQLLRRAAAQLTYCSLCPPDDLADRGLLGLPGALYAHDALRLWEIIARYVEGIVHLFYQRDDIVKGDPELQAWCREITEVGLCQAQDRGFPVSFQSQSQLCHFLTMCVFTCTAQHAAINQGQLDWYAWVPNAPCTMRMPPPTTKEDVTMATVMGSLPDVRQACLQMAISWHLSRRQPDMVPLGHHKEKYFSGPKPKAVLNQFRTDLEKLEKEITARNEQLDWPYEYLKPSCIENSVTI

These molecules were tested against Polyunsaturated fatty acid lipoxygenase ALOX12 (Homo sapiens) (UniProt P18054) (assay: Primary qHTS assay for inhibitors of human arachidonate 12S-lipoxygenase (ALOX12): Round 2). Conditions: purified 12hLO, xylenol orange hydroperoxide absorbance; series mostly up to 108 µM.
How it was run: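 Hydroperoxide product was detected by ferrous iron/xylenol orange as the 573 to 405 nm absorbance ratio. Arachidonic acid at 40 uM (final) was turned over for 30 min at room temperature by 150 nM human 12hLO, pH 7.0 Hepes buffer, after 15 min compound preincubation.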
Potency means the concentration at half of the fitted maximal effect.

Row | SMILES | Potency
1 | CC(=O)c1ccc(OCCCN2CCCCC2)cc1 | inconclusive: 5.62 µM [inhibitor, full curve, poor fit]
2 | CC(=O)Nc1cc(-c2cccc(NS(C)(=O)=O)c2)cn2c(-c3cccc(C(F)(F)F)c3)cnc12 | inconclusive: 89.1 µM [inhibitor, single point]
3 | Nc1c(S(=O)(=O)O)cc(Nc2cccc3ccccc23)c2c1C(=O)c1ccccc1C2=O | inconclusive: 35.5 µM [inhibitor, partial curve, poor fit]
4 | N#CC1c2ccccc2C=CN1C(=O)c1ccccc1 (configuration not stated) | inactive
5 | COc1ccc(/C(C)=C2\SC(=S)N(CCC(=O)O)C2=O)cc1 | inactive
6 | CC(C)C(=O)/C(C#N)=C\c1ccc(OCc2ccccc2F)cc1 | inactive
7 | NCCCCCc1nnc(SCC(=O)c2ccc(Cl)cc2)o1 | inactive
8 | CC(C)NC(=S)n1cc(C(=O)c2cc(Cl)cc(Cl)c2O)cn1 | inconclusive: 50.1 µM [inhibitor, partial curve, poor fit]
9 | CN1CC(=O)N(C2CCCNC2)Cc2c1ncnc2N1CCSCC1 (configuration not stated) | inconclusive: 3.98 µM [inhibitor, full curve, poor fit]
10 | CC(OC(=O)c1nn(C)c(=O)c2ccccc12)C(=O)c1c[nH]c2ccccc12 (configuration not stated) | inconclusive: 126 µM [inhibitor, single point]
11 | CCc1ccc(CN2CCC3(CC2)Cc2ccccc2CNC3=O)s1 | inconclusive: 100 µM [inhibitor, partial curve, poor fit]
12 | COCCSc1ccccc1C(=O)Nc1cccnc1 | active: 22.4 µM
13 | O=C(Cn1c(=O)n(CCc2ccccc2)c(=O)c2sccc21)c1ccccc1 | inconclusive: 39.8 µM [inhibitor, partial curve, poor fit]
14 | CCOC(=O)CSc1nnc(-c2ccco2)n1-c1ccccc1 | inactive
15 | Cc1ccc(NC(=O)CSCC(=O)Nc2ccccc2N2CCCCC2)cc1 | inconclusive: 28.2 µM [inhibitor, partial curve, poor fit]
16 | CCOc1cccc(=O)c2c(C)n(Cc3ccco3)c(C)c12 | inconclusive: 20 µM [inhibitor, partial curve, poor fit]
17 | COc1cccc(/C=C(\C#N)c2nc3ccccc3[nH]2)c1OC | inactive
18 | CN(C)C1(CNC(=O)c2cccc(S(=O)(=O)NCc3ccccc3)c2)CCCCC1 | inactive
19 | CCN(CC)CCN(C(=O)c1ccc2c(c1)OCCO2)c1nc2cc(C)cc(C)c2s1 | inconclusive: 35.5 µM [inhibitor, partial curve, poor fit]
20 | Cc1ccc(NC(=S)/C(=C(\[O-])c2ccc(Cl)s2)[n+]2cccc(CO)c2)cc1C | inactive
21 | Cc1cccc(N(CC(=O)NCc2ccc3c(c2)OCO3)C(=O)CCC(=O)Nc2ccccn2)c1 | inconclusive: 126 µM [inhibitor, single point]
22 | O=C(NC(=S)NCc1ccccc1)C1CCCCC1 | inconclusive: 56.2 µM [inhibitor, partial curve, poor fit]
23 | CCCCCCCCc1nnc(NC(=O)c2ccco2)s1 | inconclusive: 39.8 µM [inhibitor, partial curve, poor fit]

Row | SMILES | Potency
24 | O=C1Nc2ccc(-c3cccs3)cc2C(=O)N2CC[C@H](NS(=O)(=O)c3ccc(Cl)cc3)C[C@@H]12 | inconclusive: 14.1 µM [inhibitor, full curve]
25 | COCc1cccc(-c2n[nH]c3c2CC(=O)N(CC2CC2)C3)c1 | inconclusive: 31.6 µM [inhibitor, partial curve, poor fit]
26 | COc1cc(CCC(=O)OCC(=O)Nc2c(Cl)cccc2Cl)cc(OC)c1OC | inconclusive: 100 µM [inhibitor, partial curve, poor fit]
27 | COc1ccccc1N(CC(=O)NC1CCCCC1)C(=O)CCC(=O)Nc1ccccn1 | inconclusive: 39.8 µM [inhibitor, single point]
28 | COc1ccc(-c2nn(-c3ccccc3)cc2C(=O)N2CCN(S(=O)(=O)c3cccc(F)c3)CC2)cc1 | inconclusive: 126 µM [inhibitor, single point]
29 | CN1C(=O)CC(C(=O)O)C12CCN(Cc1cccc(-c3ccccc3)c1)CC2 (configuration not stated) | inconclusive: 7.94 µM [inhibitor, partial curve, poor fit]
30 | Cc1cccc(-c2noc(-c3ccc(N4CCN(C)CC4)c([N+](=O)[O-])c3)n2)c1 | inconclusive: 56.2 µM [inhibitor, partial curve, poor fit]
31 | CCc1nc(NC(=O)c2ccc(C#N)cc2)sc1C | inconclusive: 8.91 µM [inhibitor, full curve, poor fit]
32 | COc1cccc(N2CCN(CC(=O)c3c[nH]c4ccc(OC)cc34)CC2C)c1 (configuration not stated) | inconclusive: 31.6 µM [inhibitor, single point]
33 | O=C(Nc1nccs1)c1ccc(Cl)c(S(=O)(=O)N2CCCCC2)c1 | inactive
34 | O=C(O)c1ccc(C2CCCN(C(=O)CN3CCc4ccccc4C3)C2)cc1 (configuration not stated) | inactive
35 | NC(=O)C1=C[C@H](c2csc3ccccc23)C[C@H](OCc2ccc(CO)cc2)O1 | inconclusive: 112 µM [inhibitor, single point]
36 | O=C(c1ccc(F)cc1)N1CCCN(Cc2ccc3c(c2)OCO3)c2ccccc21 | inconclusive: 15.8 µM [inhibitor, partial curve]
37 | O=C(NC[C@H]1O[C@@H](CO)[C@@H](O)[C@H]1N1CCOCC1)c1cccs1 | inconclusive: 11.2 µM [inhibitor, full curve]
38 | COc1cccc(C(=O)N2CCN(C(=O)c3nnn4c3COC(c3ccc(F)cc3)C4)CC2)c1 (configuration not stated) | inactive
39 | O=C(Nc1ccc(F)cc1F)N1CCCC(c2nc(-c3ccc(F)cc3)no2)C1 (configuration not stated) | inactive
40 | Cc1ccc(C2C(C#N)=C(N)OC3=C2C(=O)CC(C)(C)C3)o1 (configuration not stated) | inactive
41 | CCOC(=O)C1CCN(Cc2ccc(F)c(F)c2)CC1 | inconclusive: 1.12 µM [inhibitor, full curve, poor fit]
42 | CC(C)c1noc(COc2ccc(C(N)=O)cc2)n1 | inactive
43 | COCCN(CCOC)Cc1cc(=O)oc2ccccc12 | active: 17.8 µM
44 | COc1ccc(CCC(C)NC(=O)C2(C#N)CCCC2)cc1 (configuration not stated) | inactive
45 | O=C(c1ccccc1F)N1CCC(n2cc(-c3nc(C4CC4)no3)nn2)C1 (configuration not stated) | inconclusive: 50.1 µM [inhibitor, partial curve]
46 | CN(C)c1ccc(CN[C@H]2CC(C)(C)[C@@H]3C[C@@](C)(O)CC[C@]23CCC(=O)NCCc2c[nH]c3ccccc23)cc1 | inconclusive: 89.1 µM [inhibitor, partial curve, poor fit]

Row | SMILES | Potency
47 | COC(=O)N1C(=O)[C@](c2ccccc2)(C2CCCCC2)N1C(=O)OC | inactive
48 | NS(=O)(=O)c1ccc(N/N=C/c2cn(-c3ccccc3)nc2-c2cccs2)cc1 | inconclusive: 70.8 µM [inhibitor, single point]
49 | c1ccc(-c2ccccc2OCCCCN2CCCCCC2)cc1 | inconclusive: 17.8 µM [inhibitor, partial curve, poor fit]
50 | COc1ccccc1N1CCN(C(=O)Cn2cnc3c2c(=O)n(C)c(=O)n3C)CC1 | inconclusive: 31.6 µM [inhibitor, single point]
51 | CC(C)C[C@H]1COc2cc(N3CCSCC3)ccc2S(=O)(=O)N1 | inconclusive: 2.51 µM [inhibitor, single point]
52 | Cc1ccc(NC(=O)c2ccc(NCCc3ccccc3)c([N+](=O)[O-])c2)cc1F | inactive
53 | O=c1c2ccccc2sn1-c1ccc(F)cc1 | inconclusive: 35.5 µM [inhibitor, full curve, poor fit]
54 | CCc1nc(NCC(C)C)c(C#N)c2c1CCCC2 | inactive
55 | C[C@@H](NC(=O)[C@@H]1CCCN1C(=O)[C@@H]1CCCN1C(=O)c1ccc(Cl)cc1)c1ccccc1 | inconclusive: 158 µM [inhibitor, single point]
56 | CCC(C)(C)NC(=O)C(c1ccc(OC)cc1)N(C(=O)CCC(=O)Nc1cc(C)on1)c1ccc2c(c1)OCCO2 (configuration not stated) | inconclusive: 89.1 µM [inhibitor, single point]
57 | COC(=O)Cn1c(=O)c(C(=O)CCl)c(N)n(Cc2ccccc2)c1=O | inconclusive: 20 µM [inhibitor, partial curve, poor fit]
58 | Nc1nonc1C(=O)N/N=C/c1ccc(-c2cccc([N+](=O)[O-])c2)o1 | inactive
59 | CCC(C)Cc1c(C)sc2nc(CNc3ccc4c(c3)OCO4)[nH]c(=O)c12 (configuration not stated) | inconclusive: 0.501 µM [inhibitor, full curve, poor fit]
60 | CN(C)CCNC(=O)CCNc1nc(Cl)nc2nc[nH]c12 | inconclusive: 39.8 µM [inhibitor, partial curve, poor fit]
61 | CCOCc1ccc(CNC(=O)/C=C/c2ccc(C)o2)cc1 | inactive
62 | CC1CCN(c2ccc(NC(=O)c3ccc([N+](=O)[O-])o3)cc2)CC1 | inconclusive: 79.4 µM [inhibitor, partial curve, poor fit]
63 | N#Cc1nc(-c2ccc(Cl)cc2)oc1N1CCCC1 | inactive
64 | COc1ccccc1-c1nnc(SCC(=O)N(C)C2(c3ccccc3Cl)CCCCC2=O)o1 (configuration not stated) | inactive
65 | Cc1ccn2c(-c3csc(Nc4ccc(C(=O)O)cc4)n3)c(C)nc2c1 | inconclusive: 39.8 µM [inhibitor, partial curve]
66 | COc1ccc(Nc2ccnc3ccccc23)cc1 | inactive
67 | Cc1ccc(-c2nc3ccc(Cl)cn3c2CC(C)(C)C)cc1 | inconclusive: 100 µM [inhibitor, partial curve, poor fit]

Random excerpt: four compounds from above
Row | SMILES | Potency
51 | CC(C)C[C@H]1COc2cc(N3CCSCC3)ccc2S(=O)(=O)N1 | inconclusive: 2.51 µM [inhibitor, single point]
66 | COc1ccc(Nc2ccnc3ccccc23)cc1 | inactive
57 | COC(=O)Cn1c(=O)c(C(=O)CCl)c(N)n(Cc2ccccc2)c1=O | inconclusive: 20 µM [inhibitor, partial curve, poor fit]
59 | CCC(C)Cc1c(C)sc2nc(CNc3ccc4c(c3)OCO4)[nH]c(=O)c12 (configuration not stated) | inconclusive: 0.501 µM [inhibitor, full curve, poor fit]
